Measurements as given in PubChem BioAssay AID445 (National Center for Advancing Translational Sciences (NCATS), 2006).
The list shows a part of the results. Further columns of the screen follow, without active or inactive calls. Compounds called inactive in the main read-out are mostly missing here. The note in brackets gives the kind of curve behind each potency; many fits are weak.

Test: IkB Signaling
Conditions: ABC-DLBCL IkBa-CBG/CBR dual luciferase ratio (green luciferase fused to IkBa over red control in OCI-Ly3 lymphoma cells), 4 h; measured here: control luc red channel unless noted
Outline: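 Curves were fitted separately to fusion (green), unfused (red) and ratio luminescence, then classed by r2, magnitude and activity. Cells: OCI-Ly3, 4 h compound plus doxycycline at 37C; 10 uM MG-132 defined full response.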

Structure (SMILES) | AC50
Cc1cc(NC(=O)c2ccc3c(c2)N(Cc2cccc(Cl)c2)C(=O)c2ccccc2S3=O)ccc1Br (configuration not stated) | 15.8 µM [falling, partial curve]
CC(=O)c1c(C)n(CC(=O)NCc2ccc3c(c2)OCO3)c2ccccc12 | 12.6 µM [falling, partial curve]
COc1cc(/C=C\C(=O)N2CCC=CC2=O)cc(OC)c1OC | 10 µM [falling, partial curve]
Cc1nn(-c2ccccc2)c(OC(=O)c2ccccc2F)c1S(=O)(=O)c1ccccc1 | 1.58 µM [falling, full curve, poor fit]
CCn1c(=O)c2cc(C(=O)N3CCN(c4cccc(Cl)c4)CC3)sc2c2ccccc21 | 5.01 µM [falling, partial curve]
N#Cc1ccccc1NC(=O)c1cc2c(=O)n3ccccc3nc2s1 | 0.00631 µM [rising, full curve, poor fit]
COc1ccc(C(=O)Nc2ccc(Cl)cc2C(=O)NCc2ccco2)cc1OC | 12.6 µM [falling, partial curve]
Cc1cc(C)c(C#N)c(SCC(=O)OC2CCCCC2)n1 | 12.6 µM [falling, partial curve]
CCOc1ccccc1Nc1nc(-c2cccc(Cl)c2)c2c(n1)-c1ccccc1OC2 | 3.16 µM [falling, single point]
COc1ccc(-c2noc(-c3ccc(NCc4ccco4)c([N+](=O)[O-])c3)n2)cc1 | 6.31 µM [falling, partial curve]
CCOC(=O)c1cccc(NC(=O)CCc2c(C)nc3cc(-c4ccc(Cl)cc4)nn3c2C)c1 | 0.0316 µM [falling, full curve]
CCc1nnc(SCC(=O)N(C)c2ccccc2)c2cc3sccc3n12 | 10 µM [falling, partial curve]
Cn1cnnc1SCC(=O)Nc1cc(C(=O)O)cc(C(=O)O)c1 | 1 µM [rising, single point]
CCc1ccc(Oc2nc3c(C)cccn3c(=O)c2/C=C(\C#N)c2nc3ccccc3[nH]2)cc1 | 20 µM [falling, partial curve]
Cc1cc(C)nc(-n2nc(C)cc2Nc2ccccc2)n1 | 15.8 µM [falling, partial curve]
COc1ccc(NC(=O)c2sc3nc4c(cc3c2N)CN(C(C)C)CC4)c(OC)c1 | 12.6 µM [falling, partial curve]

Structure (SMILES) | AC50
Cc1cccc(C(=O)NCC(c2ccc3c(c2)OCO3)N2CCN(c3ccccc3F)CC2)c1 (configuration not stated) | 25.1 µM [falling, partial curve]
COc1cc(-c2noc(CSc3nc(-c4ccccc4)cc(=O)[nH]3)n2)cc(OC)c1OC | 12.6 µM [falling, partial curve, poor fit]
CCOc1ccc2nc(-c3ccccc3)[nH]c2c1 | 25.1 µM [falling, partial curve]
COc1ccc(OC)c(NC(=O)Cn2cnc3sc(C)c(S(=O)(=O)N4CCN(c5ccccc5OC)CC4)c3c2=O)c1 | 12.6 µM [falling, partial curve]
COc1ccc(NC(=O)c2ccc3c(=O)n4nc(Nc5cc(C)ccc5C)sc4nc3c2)cc1 | 3.16 µM [falling, single point]
O=C1CN(C(=O)c2ccc(Br)o2)C(c2ccc(F)cc2)c2cc(F)ccc2N1 (configuration not stated) | 25.1 µM [falling, partial curve]
Cc1cc(C)cc(OCc2nnc(SCC(=O)c3ccccc3)o2)c1 | 15.8 µM [falling, partial curve]
CCOC(=O)c1sc2ncn(C(CC)C(=O)OCC)c(=O)c2c1C (configuration not stated) | 31.6 µM [falling, single point]
c1ccc(Cc2nnc(SCc3nc(-c4cccs4)no3)n2-c2ccccc2)cc1 | 25.1 µM [falling, single point]
Cc1sc2ncnc(SCc3ccco3)c2c1C | 31.6 µM [falling, partial curve]
COc1cccc(NC(=O)c2sc3nc(C)c(C(=O)Nc4ccc(C)cc4C)c(-c4sccc4C)c3c2N)c1 | 2 µM [falling, full curve]
CC(C)c1ccc2oc(-c3cc(NC(=O)c4cccs4)ccc3Cl)nc2c1 | 3.98 µM [falling, partial curve]
Cc1cc(C)c(Cn2c(CCNC(=O)c3ccco3)nc3ccccc32)c(C)c1 | 25.1 µM [falling, partial curve]
Cc1ccc([C@H]2Nc3ccc(S(=O)(=O)Nc4cccc(Cl)c4C)cc3[C@H]3C=CC[C@H]32)cc1 | 12.6 µM [falling, partial curve]
Cc1ccc(Nc2nnc(-c3ccc(C)c(S(=O)(=O)N4CCN(C)CC4)c3)c3ccccc23)c(C)c1 | 15.8 µM [falling, partial curve]
CCOc1ccc2nc(N3CCC(C(=O)N4CCN(c5ccccn5)CC4)CC3)sc2c1 | 7.94 µM [falling, partial curve]

Some of the entries above, set out differently.
Structure (SMILES)	AC50
O=C1CN(C(=O)c2ccc(Br)o2)C(c2ccc(F)cc2)c2cc(F)ccc2N1 (configuration not stated)	25.1 µM [falling, partial curve]
Cc1cc(C)cc(OCc2nnc(SCC(=O)c3ccccc3)o2)c1	15.8 µM [falling, partial curve]
